# Measured values as given in PubChem BioAssay AID651820 (National Center for Advancing Translational Sciences (NCATS), 2012).
# Screen size: about 340,000 compounds; about 12,000 (3.5%) were called active. Listed are the inconclusive results; actives and inactives stand elsewhere. Calls come from the whole dose curve; as a rule, active = well fitted inhibition curve with a large enough effect; inconclusive = small, poorly fitted or top-dose-only effect, or another doubt; inactive = no such curve, though single readings can be large or run the other way.
# Assay: qHTS Assay for Inhibitors of Hepatitis C Virus (HCV)
# Conditions: Huh7.5.1 HCVcc-Cre (HCVcc is cell-culture hepatitis C virus) infection, luciferase reporter, 44 h
# From the text: Hepatitis C virus (HCV) infects about 200 million people in the world. Many infected people progress to chronic liver disease including cirrhosis with a risk of developing liver cancer. To date, there is no effective vaccine for hepatitis C. Current therapy based on interferon is only effective in about half of the patients and is associated with significant adverse effects. The fraction of people with HCV who can complete a successful treatment is estimated to be no more than 10 percent. Recent development of direct-acting antivirals against HCV, such as protease and polymerase inhibitors, is promising but still requires combination with peginterferon and ribavirin for maximal efficacy. In addition, these agents are associated with high rate of resistance and many have significant side effects. Due to the lack of a culture system for infectious HCV, the search for new HCV drugs has been greatly hampered. […] High-throughput screening (HTS) with an infectious HCV system would cover the complete spectrum of potentially druggable targets in all stages of HCV lifecycle, and would have more biological relevance than other cell-based assays. Moreover, targeting several key processes in the viral life cycle may not only increase antiviral efficacy; more importantly, it may also reduce the capacity of the virus to develop resistance to the compound. The goal of this project is to identify novel HCV inhibitors as new therapies for hepatitis C, using a highly sensitive and specific assay platform which is based on a HCV infectious cell culture system established in the laboratory and adapted for high-throughput HCV drug screen. NIH Chemical Genomics Center [NCGC] NIH Molecular Libraries Probe Centers Network [MLPCN] MLPCN Grant: MH095511 Assay Submitter (PI): Jake Liang, NIDDK
# The assay will start with plating 1,000 cells/well in 3 µL volume and culture for 4 h. Then 23 nL of compounds from the library collection will be added to each well, followed by adding 2.5 µL of HCVcc-Cre virus (~ 0.5 moi) and further cultured for 44 h before the luciferase assay. A volume of 4.5 µL luciferase substrates will be added to each well and the plates will be incubated at room temperature for 15 min. and then read for 15 sec. for the luciferase activity
row,SMILES,Potency
1,COc1cc(C(=O)NCC2(N(C)C)CCCCC2)ccc1OC(F)F,inconclusive: 7.08 µM
2,COc1ccc(NC2CCN(CCc3ccccc3)CC2)c(OC)c1,inconclusive: 31.6 µM
3,O=C(OC1CN2CCC1CC2)C1c2ccccc2Oc2ccccc21 (stereo unspecified),inconclusive: 2 µM
4,COc1ccc(Cl)cc1C(=O)NCC1(N2CCOCC2)CCCCC1,inconclusive: 20 µM
5,Cc1cc(C)cc(N(C(=O)c2ccccc2)C2CCN(C(=O)OC(C)(C)C)CC2)c1,inconclusive: 31.6 µM
6,CCCOc1ccc(C(=O)NCC2(N(C)C)CCCCC2)cc1OC,inconclusive: 3.16 µM
7,CC(C)c1ccc(NC2CCN(C(=O)OC(C)(C)C)CC2)cc1,inconclusive: 31.6 µM
8,O=C(NCC1(N2CCCCC2)CCCCC1)c1ccc(OC(F)F)cc1,inconclusive: 10 µM
9,CCCN1CCC(Nc2cc(OC)cc(OC)c2)CC1,inconclusive: 22.4 µM
10,Cc1cc(N(CCCl)CCCl)ccc1C=O,inconclusive: 22.4 µM
11,N#Cc1ccc(C(=O)NCC2(N3CCCCC3)CCCCC2)cc1,inconclusive: 0.891 µM
